Numbering of substitutions follows the chain as printed. No constants are given. Whether binding was seen depends on the method and setting. Binding can be weak; no strength is given. One block for each binder: values may come before it.
How the values were obtained:
hTNFR2-Δ2 (human) [1] = experiment: flow cytometry on transfected HEK293 cells, MFI
hTNFR2-Δ4 (human) = hTNFR2-Δ4 (human) (UniProt P20333); experiment: flow cytometry on transfected HEK293 cells, MFI
hTNFR2-Δ1 (human) [2] = molecular target: hTNFR2-Δ1 (human) (UniProt P20333); experiment: flow cytometry on transfected HEK293 cells, MFI
hTNFR2-Δ2 (human) [3] = experiment: flow cytometry, transfected HEK cells
hTNFR2-Δ1 (human) [4] = molecular target: hTNFR2-Δ1 (human) (UniProt P20333); experiment: flow cytometry, transfected HEK cells
hTNFR2-Δ2 (human) [5] = experiment: flow cytometry, transfected HEK293 cells
hTNFR2-Δ1 (human) [6] = molecular target: hTNFR2-Δ1 (human) (UniProt P20333); experiment: flow cytometry, transfected HEK293 cells
hTNFR2-Δ1 + 3 (human) [7] = molecular target: hTNFR2-Δ1 + 3 (human) (UniProt P20333); experiment: flow cytometry on transfected HEK293 cells, MFI
hTNFR2-Δ1 + 3 (human) [8] = molecular target: hTNFR2-Δ1 + 3 (human) (UniProt P20333); experiment: flow cytometry, transfected HEK cells
hTNFR2-Δ2 + 4 (human) [9] = molecular target: hTNFR2-Δ2 + 4 (human) (UniProt P20333); experiment: flow cytometry on transfected HEK293 cells, MFI
hTNFR2-Δ2 + 4 (human) [10] = molecular target: hTNFR2-Δ2 + 4 (human) (UniProt P20333); experiment: flow cytometry, transfected HEK cells

Chains of the proteins cited; added tags and fusions are not shown. Lines headed by an entry give the natural chain unless they say otherwise; changes in a name come on top.
UniProt P20333: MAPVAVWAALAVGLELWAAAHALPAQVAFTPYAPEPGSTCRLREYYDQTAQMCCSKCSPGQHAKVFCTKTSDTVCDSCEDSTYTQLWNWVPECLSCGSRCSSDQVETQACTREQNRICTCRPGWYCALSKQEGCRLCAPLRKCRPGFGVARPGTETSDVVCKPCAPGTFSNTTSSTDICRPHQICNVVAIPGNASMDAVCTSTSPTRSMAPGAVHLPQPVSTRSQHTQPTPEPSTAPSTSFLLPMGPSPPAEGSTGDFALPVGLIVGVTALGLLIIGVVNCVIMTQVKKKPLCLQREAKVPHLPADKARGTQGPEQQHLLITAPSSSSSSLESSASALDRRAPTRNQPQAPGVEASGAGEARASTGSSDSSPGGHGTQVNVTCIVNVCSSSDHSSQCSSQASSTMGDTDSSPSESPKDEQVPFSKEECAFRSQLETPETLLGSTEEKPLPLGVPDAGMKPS

B1: 001-F02 (antibody, V domains shown)
VH: EVQLLESGGGLVQPGGSLRLSCAASGFTFSDYYMSWVRQAPGKGLEWVANINTDGSEKYYLDSVKGRFTISRDNSKNTLYLQMNSLRAEDTAVYYCAREEYGAFDIWGQGTLVTVSS
VL: QSVLTQPPSASGTPGQRVTISCSGSSSNIGSNTVNWYQQLPGTAPKLLIYDNNKRPSGVPDRFSGSKSGTSASLAISGLRSEDEADYYCQSFDRGLSGSIVFGGGTKLTVLG
- binding (hTNFR2-Δ2 (human) [1]): binds
- binding (hTNFR2-Δ4 (human)): binds
- binding (hTNFR2-Δ1 (human) [2]): binds
- binding (hTNFR2-Δ2 (human) [3]): binds
- binding (hTNFR2-Δ1 (human) [4]): binds
- binding (hTNFR2-Δ2 (human) [5]): binds
- binding (hTNFR2-Δ1 (human) [6]): binds

B3: 001-F06 (antibody, V domains shown)
VH: EVQLLESGGGLVQPGGSLRLSCAASGFTFSSYAMHWVRQAPGKGLEWVSAISGGATTTYYADSVKGRFTISRDNSKNTLYLQMNSLRAEDTAVYYCAKGGTGDPYYFDYWGQGTLVTVSS
VL: QSVLTQPPSASGTPGQRVTISCTGSSSNIGAGYDVHWYQQLPGTAPKLLIYRNNQRPSGVPDRFSGSKSGTSASLAISGLRSEDEADYYCAARDDGLSGPVFGGGTKLTVLG
- binding (hTNFR2-Δ2 (human) [1]): binds
- binding (hTNFR2-Δ1 + 3 (human) [7]): binds
- binding (hTNFR2-Δ1 (human) [2]): binds
- binding (hTNFR2-Δ2 (human) [3]): binds
- binding (hTNFR2-Δ1 + 3 (human) [8]): binds
- binding (hTNFR2-Δ1 (human) [4]): binds
- binding (hTNFR2-Δ2 (human) [5]): binds
- binding (hTNFR2-Δ1 (human) [6]): binds

B5: 004-E08 (antibody, V domains shown)
VH: EVQLLESGGGLVQPGGSLRLSCAASGFTFSRYWMHWVRQVPGKGLEWVSGISDSGVVTYYADSVKGRFTISRDNSKNTLYLQMNSLRAEDTAVYYCARAQSVAFDIWGQGTLVTVSS
VL: B3 VL with T23S, Y33H, R52Y, N53D, N54D, Q55L, R56L, R93W, G96S, P100W
- binding (hTNFR2-Δ2 (human) [1]): binds
- binding (hTNFR2-Δ1 (human) [2]): binds
- binding (hTNFR2-Δ2 (human) [3]): binds
- binding (hTNFR2-Δ1 (human) [4]): binds
- binding (hTNFR2-Δ2 (human) [5]): binds
- binding (hTNFR2-Δ1 (human) [6]): binds

Other lines, results leading:

- binding (hTNFR2-Δ2 (human) [1]): binds
- binding (hTNFR2-Δ1 (human) [2]): binds
B2: 001-G10 (antibody, V domains shown)
VH: EVQLLESGGGLVQPGGSLRLSCAASGFTFSAYGMHWVRQAPGKGLEWVAVVSYDGREKHYADSVKGRFTISRDNSKNTLYLQMNSLRAEDTAVYYCARSDGGYDSDSGYYWGQGTLVTVSS
VL: QSVLTQPPSASGTPGQRVTISCSGSTSNIGSNFVYWYQQLPGTAPKLLIYDNNKRPSGVPDRFSGSKSGTSASLAISGLRSEDEADYYCSSYAYSDNILFGGGTKLTVLG

- binding (hTNFR2-Δ2 (human) [1]): binds
- binding (hTNFR2-Δ2 + 4 (human) [9]): binds
- binding (hTNFR2-Δ4 (human)): binds
- binding (hTNFR2-Δ1 (human) [2]): binds
- binding (hTNFR2-Δ2 (human) [3]): binds
- binding (hTNFR2-Δ2 + 4 (human) [10]): binds
- binding (hTNFR2-Δ1 (human) [4]): binds
- binding (hTNFR2-Δ2 (human) [5]): binds
- binding (hTNFR2-Δ1 (human) [6]): binds
B4: 001-H10 (antibody, V domains shown)
VH: EVQLLESGGGLVQPGGSLRLSCAASGFTFDDYGMSWVRQAPGKGLEWVSVIYSGGSTYYADSVKGRFTISRDNSKNTLYLQMNSLRAEDTAVYYCARDRSSSWYRDGMDVWGQGTLVTVSS
VL: B3 VL with R52G, N54S, Q55N, R93W, G96S, P100W

Reference: patent US20250388690A1
